Reference: PubChem BioAssay AID1224830 (NIAID, 2016)

Test: 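Host factors that control LPS-induced TNF expression in human macrophages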 (primary screen)
Cell system: human THP-1 monocytic leukaemia cells, TNF dual-luciferase reporter clone, PMA-differentiated to macrophage-like cells
Reagent: siRNA pool against human genes, 50 nM
Duration: LPS for 4 h, given about 3 days after siRNA transfection
Treatment: bacterial LPS (TLR4 ligand), 10 ng/ml
Measurement: 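Ratio of firefly to renilla light, scaled to the plate median and expressed as a robust z-score per replicate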
Reading the numbers: TNF reporter robust z-score: higher = stronger TNF reporter response to LPS
Active means: 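Each well counts as active if its z-score is over 2.8 or under -1.5; controls are left without a call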
Here is a random part of about 18,000 deposited reagents. About 2,900 of them (16%) were called active. 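Calls are made per well; low scores hint the gene aids the LPS response, high scores that it dampens it.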 Repeated entries: four replicate wells of each siRNA pool.

LILRA2 → TNF reporter robust z-score: 0.22; Outcome: inactive
LILRA2 → TNF reporter robust z-score: 0.17; Outcome: inactive
LILRA2 → TNF reporter robust z-score: 0.08; Outcome: inactive
F7 → TNF reporter robust z-score: -1.18; Outcome: inactive
F7 → TNF reporter robust z-score: 0.5; Outcome: inactive
F7 → TNF reporter robust z-score: 0.07; Outcome: inactive
F7 → TNF reporter robust z-score: 0.33; Outcome: inactive
ZBTB37 → TNF reporter robust z-score: 0.67; Outcome: inactive
ZBTB37 → TNF reporter robust z-score: 0.85; Outcome: inactive
ZBTB37 → TNF reporter robust z-score: 0.72; Outcome: inactive
ZBTB37 → TNF reporter robust z-score: 0.82; Outcome: inactive
PCSK2 → TNF reporter robust z-score: 0.16; Outcome: inactive
PCSK2 → TNF reporter robust z-score: 0.13; Outcome: inactive
PCSK2 → TNF reporter robust z-score: -0.87; Outcome: inactive
PCSK2 → TNF reporter robust z-score: -0.67; Outcome: inactive
CCL5 → TNF reporter robust z-score: 0.1; Outcome: inactive
CCL5 → TNF reporter robust z-score: -0.4; Outcome: inactive
CCL5 → TNF reporter robust z-score: 0.07; Outcome: inactive
CCL5 → TNF reporter robust z-score: 1.12; Outcome: inactive
B4GALNT2 → TNF reporter robust z-score: 1.05; Outcome: inactive
B4GALNT2 → TNF reporter robust z-score: -0.07; Outcome: inactive
B4GALNT2 → TNF reporter robust z-score: -0.09; Outcome: inactive
B4GALNT2 → TNF reporter robust z-score: 1.92; Outcome: inactive
STAT1 → TNF reporter robust z-score: -1.52; Outcome: active
STAT1 → TNF reporter robust z-score: -1.5; Outcome: inactive
STAT1 → TNF reporter robust z-score: -1.39; Outcome: inactive
STAT1 → TNF reporter robust z-score: -0.59; Outcome: inactive
CROCC → TNF reporter robust z-score: -0.09; Outcome: inactive
CROCC → TNF reporter robust z-score: 0.12; Outcome: inactive
CROCC → TNF reporter robust z-score: -0.14; Outcome: inactive
CROCC → TNF reporter robust z-score: 0.17; Outcome: inactive
CYP17A1 → TNF reporter robust z-score: 1.62; Outcome: inactive
CYP17A1 → TNF reporter robust z-score: -0.08; Outcome: inactive
CYP17A1 → TNF reporter robust z-score: -0.76; Outcome: inactive
CYP17A1 → TNF reporter robust z-score: 0.27; Outcome: inactive
PRDM15 → TNF reporter robust z-score: -0.91; Outcome: inactive
PRDM15 → TNF reporter robust z-score: -1.44; Outcome: inactive
PRDM15 → TNF reporter robust z-score: 0.28; Outcome: inactive
PRDM15 → TNF reporter robust z-score: -0.15; Outcome: inactive

Reformatted: results already given
target | TNF reporter robust z-score | Outcome
PCSK2 | -0.87 | inactive
PCSK2 | -0.67 | inactive
CCL5 | 0.1 | inactive

More entries:
RNH1 → TNF reporter robust z-score: -0.59; Outcome: inactive
RNH1 → TNF reporter robust z-score: -0.64; Outcome: inactive
RNH1 → TNF reporter robust z-score: -0.71; Outcome: inactive
RNH1 → TNF reporter robust z-score: -0.13; Outcome: inactive
OR52L1 → TNF reporter robust z-score: -0.16; Outcome: inactive
OR52L1 → TNF reporter robust z-score: 0.22; Outcome: inactive
OR52L1 → TNF reporter robust z-score: 0.03; Outcome: inactive
OR52L1 → TNF reporter robust z-score: 0.3; Outcome: inactive
LCE5A → TNF reporter robust z-score: -0.94; Outcome: inactive
LCE5A → TNF reporter robust z-score: 0.54; Outcome: inactive
LCE5A → TNF reporter robust z-score: -1.37; Outcome: inactive
LCE5A → TNF reporter robust z-score: -1.05; Outcome: inactive
XXYLT1 → TNF reporter robust z-score: -1; Outcome: inactive
XXYLT1 → TNF reporter robust z-score: -0.5; Outcome: inactive
XXYLT1 → TNF reporter robust z-score: 0.05; Outcome: inactive
XXYLT1 → TNF reporter robust z-score: 1.67; Outcome: inactive
TBX6 → TNF reporter robust z-score: 1.38; Outcome: inactive
TBX6 → TNF reporter robust z-score: 1.42; Outcome: inactive
TBX6 → TNF reporter robust z-score: 0.44; Outcome: inactive
TBX6 → TNF reporter robust z-score: 0.67; Outcome: inactive
MIR1915HG → TNF reporter robust z-score: -0.99; Outcome: inactive
MIR1915HG → TNF reporter robust z-score: -0.74; Outcome: inactive
MIR1915HG → TNF reporter robust z-score: -0.4; Outcome: inactive
MIR1915HG → TNF reporter robust z-score: -1.07; Outcome: inactive
